{"source": "patent US11583545B2", "about": "“Parasiticidal compositions comprising eprinomectin and praziquantel, methods and uses thereof” (BOEHRINGER INGELHEIM ANIMAL HEALTH USA INC., priority 2018, dated 2023)", "assay": "Pharmacokinetic assessment in cats after administration of the formulation of Example 1", "conditions": "blood of cats; after administration of formulation of Example 1", "note": "The name of at least one read-out is uncertain."}
{"substance": "Eprinomectin", "values": [{"measurement": "time at which Cmax is reached", "value": 24, "unit": "h"}]}
